Measurements: paper PMC11784353
These are yes or no findings as the source states them, for the method shown. Binding seen in cells or lysates may run through a third protein. Binding calls can cover weak binding; strength is not graded here. For some of these results: Where a sequence is shown, tags or fusion partners need not be part of it.

B1: truncated Smurf1-HA (aa 121 to 419) (domain or fragment, UniProt F6R1Z0 121-419)
chain: LSPSDTDAVRGQIVVGLQTRDRIGTGGSVVDCRGLLENEGTVYEDSGPGRPLSCFMEEPAPYTDSTGAAAGGGNCRFVESPSQDQRLQAQRLRNPEVRGSLQTPQNRPHGHQSPELPEGYEQRTTVQGQVYFLHTQTGVSTWHDPRIPRDLNSVNCDELGPLPPGWEVRSTVSGRIYFVDHNNRTTQFTDPRLHHIMNHQCQLKEPSQPLPLPSEGSVEDEELPAQRYERDLVQKLKVLRHELSLQQPQAGHCRIEVSREEIFEESYRQIMKMRPKDLKKRLMVKFRGEEGLDYGGVAR
B2: HA-tagged MUL1 (enzyme, UniProt F6TM98 1-324)
chain: MLEKGTFAVLNKGARRIHLGEDLKSILSEAPGKCVPYAVIEGVVRSVKETLNSQFVDNCKGVIQRLTLQEHKMVWNRTTHLWNDCSKIIHQRTNSVPFELVPHEDGVDVAVRVLKPLDALDLGLETVYEKYHPLVQSFTDVIGHYISGERPKGIQETEEMLKVGAALTGVGELVLDNNAVRLQPPKQGMQYYLSSQDFDSLLQGQESSARLWKVLTLVFGFAACAALFFILWKQYLQRQERLRLKQMEEEFREHEAQLLSRAKPEDRESLKSACVVCLSNFKACVFLECGHVCSCAECYRALPEPKRCPICRQQITRVVPLYSS

Assays:
[1] = target: equine MAVS-Flag (equine); assay: co-IP; HEK293T cells co-transfected with the two tagged proteins, harvested at 24 hpt; lysis buffer 50 mM HEPES-NaOH pH 7.9, 100 mM NaCl, 50 mM KCl, 0.25% NP-40, 1 mM dithiothreitol; precipitated with anti-Flag and anti-Flag magnetic beads overnight at 4°C, washed four times; immunoblot with anti-HA or anti-Flag; in Fig. 5C also with Gag-Myc co-expressed (more Smurf1 bound to MAVS)
VN-MAVS-Flag (equine) = assay: split reporter; BiFC with Venus fragments: VN-MAVS-Flag and VC-Smurf1-HA co-transfected into HEK293T cells, with or without Gag (signal enhanced with Gag); confocal microscopy
[2] = target: EIAV Gag-Flag (equine infectious anemia virus (EIAV)); assay: co-IP; HEK293T cells co-transfected with the two tagged proteins, harvested at 24 hpt; lysis buffer 50 mM HEPES-NaOH pH 7.9, 100 mM NaCl, 50 mM KCl, 0.25% NP-40, 1 mM dithiothreitol; precipitated with anti-Flag and anti-Flag magnetic beads overnight at 4°C, washed four times; immunoblot with anti-HA or anti-Flag; in Fig. 5C also with Gag-Myc co-expressed (more Smurf1 bound to MAVS)

| Molecule | binding [2] | further results |
| --- | --- | --- |
| equine Smurf1-HA (from UniProt F6R1Z0 1-727) (enzyme) | – | binding [1]: binds |
| VC-Smurf1-HA (from UniProt F6R1Z0 1-727) (enzyme) | – | binding (VN-MAVS-Flag (equine)): binds |
| B1 | binds | – |
| B2 | no binding | – |
